Reference: the supplement of paper PMC10331698
± gives the standard deviation of the averaged measurements. Most values lie at the level of the controls, where differences are scatter.

Assays:
Assay in all cases: level (log10 ratio to DMSO vehicle control); higher = higher biomarker level / cell amount than vehicle control
[1] = compound: C=CC(F)(F)C(F)(F)C(F)(F)C(F)(F)C(F)(F)C(F)(F)C(F)(F)C(F)(F)C=C [1,8-Divinylperfluorooctane]; conditions: in DMSO
Description: (§1)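 BioMAP Diversity Plus panel of 12 human primary cell co-culture systems (3C, 4H, LPS, SAg, BT, BF4T, BE3C, CASM3C, HDF3CGF, KF3CT, MyoF, Mphg). Compounds were added 1 h before stimulation and left for 24 h (MyoF 48 h; BT 72 h for soluble read-outs or 6 d for IgG). Biomarkers were read by ELISA, cytotoxicity by SRB, PBMC viability and proliferation by Alamar Blue. Each well value was divided by the mean of 8 DMSO control wells on the same plate and log10 transformed; duplicate blinded samples were tested at 4 concentrations.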

[2] = compound: FC(F)(F)C(F)(F)C(F)(F)CC1CO1 [1H,1H-Heptafluorobutyl epoxide]; conditions: 2200 nM; in DMSO
Description: as §1

[3] = compound: C=CC(=O)OCC(F)(F)C(F)(F)C(F)(F)C(F)(F)C(F)(F)C(F)(F)C(F)(F)F [1H,1H-Perfluorooctyl acrylate]; conditions: 2200 nM; in DMSO
Description: as §1

[4] = compound: CO[Si](C)(CCC(F)(F)C(F)(F)C(F)(F)C(F)(F)C(F)(F)C(F)(F)F)OC [Dimethoxymethyl((perfluorohexyl)ethyl)silane]; conditions: in DMSO
Description: as §1

[5] = compound: NC(=O)C(F)(F)C(F)(F)C(F)(F)C(F)F; conditions: in DMSO
Description: as §1

[6] = compound: COC(=O)C(F)(F)C(F)(F)OC(F)(C(F)(F)F)C(F)(F)OC(F)=C(F)F [Methyl perfluoro(3-(1-ethenyloxypropan-2-yloxy)propanoate)]; conditions: in DMSO
Description: as §1

[7] = compound: O=S(=O)(OCC(F)(F)F)C(F)(F)C(F)(F)C(F)(F)C(F)(F)F [2,2,2-Trifluoroethyl perfluorobutanesulfonate]; conditions: 2200 nM; in DMSO
Description: as §1

[8] = compound: OCCCCC(F)(F)C(F)(F)C(F)(F)C(F)(F)F [4:4 Fluorotelomer alcohol]; conditions: 2200 nM; in DMSO
Description: as §1

[9] = compound: O=S(=O)(O)C(F)(F)C(F)(F)C(F)(F)C(F)(F)C(F)(F)C(F)(F)C(F)(F)C(F)(F)F [Potassium perfluorooctanesulfonate]; conditions: 2200 nM; in DMSO
Description: as §1

[10] = compound: NS(=O)(=O)C(F)(F)C(F)(F)C(F)(F)C(F)(F)C(F)(F)C(F)(F)C(F)(F)C(F)(F)F [Perfluorooctanesulfonamide]; conditions: in DMSO
Description: as §1

[11] = compound: O=S(=O)(O)C(F)(F)C(F)(F)C(F)(F)C(F)(F)C(F)(F)C(F)(F)C(F)(F)C(F)(F)F [Perfluorooctanesulfonic acid]; conditions: 2200 nM; in DMSO
Description: as §1

[12] = compound: O=C(O)C(F)(F)C(F)(F)C(F)F [4H-Perfluorobutanoic acid]; conditions: in DMSO
Description: as §1

[13] = compound: O=P(O)(O)CCC(F)(F)C(F)(F)C(F)(F)C(F)(F)C(F)(F)C(F)(F)F [2-(Perfluorohexyl)ethylphosphonic acid]; conditions: 2200 nM; in DMSO
Description: as §1

[14] = compound: C=C(C)C(=O)OCC(F)(F)C(F)(F)C(F)(F)C(F)(F)C(F)(F)C(F)(F)C(F)(F)F; conditions: in DMSO
Description: as §1

[15] = compound: FC(F)(F)C(F)(F)C(F)(F)CI [Heptafluorobutyl iodide]; conditions: 2200 nM; in DMSO
Description: as §1

[16] = compound: O=S(=O)(F)C(F)(F)C(F)(F)C(F)(F)C(F)(F)C(F)(F)C(F)(F)C(F)(F)C(F)(F)F [Perfluorooctanesulfonyl fluoride]; conditions: 2200 nM; in DMSO
Description: as §1

[17] = compound: NC(=O)C(F)(F)C(F)(F)F [Pentafluoropropionamide]; conditions: 2200 nM; in DMSO
Description: as §1

[18] = compound: OCC(F)(F)C(F)(F)C(F)(F)C(F)(F)C(F)(F)C(F)F [1H,1H,7H-Dodecafluoro-1-heptanol]; conditions: 2200 nM; in DMSO
Description: as §1

## LPS:CD69
[1]; 740 nM
  level (log10): 0.002 ± 0.02
[1]; 2200 nM
  level (log10): -0.0105 ± 0.0064
[2]
  level (log10): 0 ± 0.081
[3]
  level (log10): -0.0025 ± 0.026
[4]; 740 nM
  level (log10): -0.0225 ± 0.059
[4]; 2200 nM
  level (log10): -0.031 ± 0.0028
[5]; 2200 nM
  level (log10): 0.017 ± 0.05
[5]; 6700 nM
  level (log10): 0.006 ± 0.027
[5]; 20000 nM
  level (log10): 0.021 ± 0.035
[5]; 60000 nM
  level (log10): 0.0225 ± 0.061
[6]; 740 nM
  level (log10): -0.0105 ± 0.005
[6]; 2200 nM
  level (log10): -0.0435 ± 0.012
[7]
  level (log10): 0.0485 ± 0.08
[8]
  level (log10): 0.0125 ± 0.022
[9]
  level (log10): -0.023
[10]; 2200 nM
  level (log10): -0.002 ± 0.045
[10]; 6700 nM
  level (log10): -0.0475 ± 0.0064
[10]; 20000 nM
  level (log10): -0.13
[11]
  level (log10): -0.0095 ± 0.013
[12]; 2200 nM
  level (log10): 0.0195 ± 0.063
[12]; 6700 nM
  level (log10): 0.024 ± 0.035
[12]; 20000 nM
  level (log10): 0.02 ± 0.034
[12]; 60000 nM
  level (log10): 0.028 ± 0.028
[13]
  level (log10): -0.0005 ± 0.14
[14]; 740 nM
  level (log10): 0.0295 ± 0.064
[14]; 2200 nM
  level (log10): 0.0045 ± 0.097
[15]
  level (log10): -0.03 ± 0.025
[16]
  level (log10): 0.0075 ± 0.011
[17]
  level (log10): -0.013 ± 0.034
[18]
  level (log10): -0.002 ± 0.088

## HDF3CGF:CXCL10/IP-10
[1]; 740 nM
  level (log10): -0.0025 ± 0.025
[1]; 2200 nM
  level (log10): 0.008 ± 0.0071
[2]
  level (log10): -0.008 ± 0.023
[3]
  level (log10): -0.0135 ± 0.015
[4]; 740 nM
  level (log10): 0.0075 ± 0.028
[4]; 2200 nM
  level (log10): 0.0105 ± 0.026
[5]; 2200 nM
  level (log10): -0.0085 ± 0.0021
[5]; 6700 nM
  level (log10): -0.001 ± 0.0014
[5]; 20000 nM
  level (log10): -0.0065 ± 0.0021
[5]; 60000 nM
  level (log10): 0.002 ± 0.011
[6]; 740 nM
  level (log10): -0.0025 ± 0.03
[6]; 2200 nM
  level (log10): -0.039 ± 0.0057
[7]
  level (log10): -0.005 ± 0.028
[8]
  level (log10): 0.003 ± 0.027
[9]
  level (log10): -0.019 ± 0.0028
[10]; 2200 nM
  level (log10): -0.079 ± 0.05
[10]; 6700 nM
  level (log10): -0.216 ± 0.011
[10]; 20000 nM
  level (log10): -0.893 ± 0.047
[11]
  level (log10): -0.0135 ± 0.029
[12]; 2200 nM
  level (log10): 0.0155 ± 0.0078
[12]; 6700 nM
  level (log10): -0.0145 ± 0.016
[12]; 20000 nM
  level (log10): 0.0025 ± 0.0021
[12]; 60000 nM
  level (log10): 0.0085 ± 0.012
[13]
  level (log10): 0.012 ± 0.0071
[14]; 740 nM
  level (log10): -0.0185 ± 0.029
[14]; 2200 nM
  level (log10): -0.02 ± 0.014
[15]
  level (log10): -0.0125 ± 0.0092
[16]
  level (log10): -0.0165 ± 0.005
[17]
  level (log10): 0.0125 ± 0.0092
[18]
  level (log10): -0.008 ± 0.011
